Assay results as given in PMC7819943, “Rice protein-binding microarrays: a tool to detect cis-acting elements near promoter regions in rice”.
The other results are listed elsewhere or left out.

Chains of the proteins cited; added tags and fusions are not shown.
UniProt Q0JBA9, entry or part of it: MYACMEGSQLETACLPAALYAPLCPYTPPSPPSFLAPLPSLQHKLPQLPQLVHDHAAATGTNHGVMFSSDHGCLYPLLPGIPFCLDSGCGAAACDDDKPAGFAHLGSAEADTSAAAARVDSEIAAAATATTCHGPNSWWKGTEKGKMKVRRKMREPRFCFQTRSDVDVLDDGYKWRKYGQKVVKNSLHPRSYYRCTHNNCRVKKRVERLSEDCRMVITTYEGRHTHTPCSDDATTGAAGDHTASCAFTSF

Target: OsWRKY34 (Oryza sativa, UniProt Q0JBA9 1-250)
Assay: protein-binding microarray (RPBM); PBS, 2% BSA, 51.3 ng/ul salmon testes DNA, 50 uM zinc acetate, 200 nM TF, 25 C, 1 h; high values mean tight binding
Details: protein: recombinant; tags: N-terminal polyhistidine and DsRed monomer fusion (pET32a); label: CyDye5-dUTP incorporated in the synthesized complementary strand; 3' TTTTT single-stranded linker to array surface; dsDNA, one strand shown
How it was run: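 An Axon 4000B scanner gave the binding signal as per-feature fluorescence intensity in arbitrary units. This followed washing of a custom Agilent array that had been incubated for 1 h at 25 °C with 200 nM protein in PBS, 2% BSA, salmon testes DNA and 50 µM zinc acetate. The proteins were transcription factors fused at the N-terminus to polyhistidine and DsRed, expressed in E. coli BL21-CodonPlus and purified on Ni–NTA.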

Sequence	binding signal
TTTCTGTATAGGTTTTTGCCGGTTTCCCGTTTAATTAACCCGGAGTCACCTAGTGCAG	11500 fluorescence intensity (a.u.)
AAGCTACCTGAACGGTTTCTCTGTACTTTATTTTTATGGTCGGAGTCACCTAGTGCAG	8270 fluorescence intensity (a.u.)
TTGTAGGTAGTCGATTGCGTTGACATTTTGACATCATTTTCGGAGTCACCTAGTGCAG	9450 fluorescence intensity (a.u.)
TCATCTCCATCTTTTTATTTACACGCACACTTCTCAAACTCGGAGTCACCTAGTGCAG	11100 fluorescence intensity (a.u.)
GTACATTTCACTCTCTTTTATAACACTATAATTGCATCCCCGGAGTCACCTAGTGCAG	8510 fluorescence intensity (a.u.)
CCTTATCCATGGAACTGTCTGCAACTTTTGTTATTGATGACGGAGTCACCTAGTGCAG	10200 fluorescence intensity (a.u.)
CTCTGCCTTGCTCTTTTATCTCGATTCAGATACAGCGTAACGGAGTCACCTAGTGCAG	9000 fluorescence intensity (a.u.)
TTGGTGTGGCATTTACCTGATATCACGAATAGTAGTGATACGGAGTCACCTAGTGCAG	9590 fluorescence intensity (a.u.)
ACATCTGTGACTACGGACATGTATGGTATAGGGTTCTAACCGGAGTCACCTAGTGCAG	8880 fluorescence intensity (a.u.)
CAGTTCAGTCGTCGTCTTCCTCCTCCTAACCTCCAGCTATCGGAGTCACCTAGTGCAG	9220 fluorescence intensity (a.u.)
GCTCCATTCTTTTTTTTCTTTTCTGTTTGATTTGATTTGACGGAGTCACCTAGTGCAG	8940 fluorescence intensity (a.u.)
CTCTCTCTCTCTGCGTCCGTCCCTCCCTCGCTTGACTTCTCGGAGTCACCTAGTGCAG	9710 fluorescence intensity (a.u.)
CTTATGCTAAGTTGGGGTCGGGGAGACTGGGGAGCTTCTCCGGAGTCACCTAGTGCAG	13000 fluorescence intensity (a.u.)
TCAAGGGGCTGTTTGGTTGCTTCCCAAACGTTGCCACACTCGGAGTCACCTAGTGCAG	8760 fluorescence intensity (a.u.)
CATGCACTTTCTGACTGTAGAGTTTTCCATTAATTAGCCTCGGAGTCACCTAGTGCAG	8990 fluorescence intensity (a.u.)
CGATCCCGAGGCCGCCACCACCACCCACCCGCTTCTCCTCCGGAGTCACCTAGTGCAG	12600 fluorescence intensity (a.u.)
ACCCGCCCCTGCTGCTCACCGCTCCAGCCTCCGCTCATCCCGGAGTCACCTAGTGCAG	8790 fluorescence intensity (a.u.)
ATAGATAAAGTTTACTCGTGCCCGTTTGGGTTGTTTGATGCGGAGTCACCTAGTGCAG	9450 fluorescence intensity (a.u.)
ACATCTTCTTATTATTTTTTAAATTTTTTTCATATCCATTCGGAGTCACCTAGTGCAG	10800 fluorescence intensity (a.u.)
CCAACCGTTGACAAGTCTCATCGTACGTTTTTATTTAGAGCGGAGTCACCTAGTGCAG	8870 fluorescence intensity (a.u.)
TGATATGATTCTTCTTCTTCCTTTGGTTAATTGTCGTCTTCGGAGTCACCTAGTGCAG	8850 fluorescence intensity (a.u.)
CAACCTGCATACGCCATCTTGTTGTACTCGATCTGATCTCCGGAGTCACCTAGTGCAG	8560 fluorescence intensity (a.u.)
GGTTATGGTTCAATTCTAATGTTCCTTTGGTGTCACATTTCGGAGTCACCTAGTGCAG	8200 fluorescence intensity (a.u.)
CTTGCTACTGCATTGCAATTTGCATTATTTGAGGCCTACACGGAGTCACCTAGTGCAG	9280 fluorescence intensity (a.u.)
GGCTCGTCGCTGCCGCCTGTATGCTTCTTCCTTCCTTAGCCGGAGTCACCTAGTGCAG	8420 fluorescence intensity (a.u.)
AACAATCTAGGGTTCTACTGTTTTTTTCTGTTCTGGCTCGCGGAGTCACCTAGTGCAG	8800 fluorescence intensity (a.u.)
CTCCGTCGCCACGCTCGCCCTCCGCTTCTTTGCCCGCCGCCGGAGTCACCTAGTGCAG	8350 fluorescence intensity (a.u.)

At a glance, part of the list above.
Sequence	binding signal
CTCTGCCTTGCTCTTTTATCTCGATTCAGATACAGCGTAACGGAGTCACCTAGTGCAG	9000 fluorescence intensity (a.u.)
TTGGTGTGGCATTTACCTGATATCACGAATAGTAGTGATACGGAGTCACCTAGTGCAG	9590 fluorescence intensity (a.u.)

Following part.

Sequence	binding signal
TTTCGCTGCCACACACACACACACACAAACACAACGACCTCGGAGTCACCTAGTGCAG	10300 fluorescence intensity (a.u.)
ACAGTTCCGTACTTTTCAGTCTGGCGACAGTTTTTTTCATCGGAGTCACCTAGTGCAG	11500 fluorescence intensity (a.u.)
GCTTCGGCTCGGGGTGGGTTGGGTTGGGTTGGGTTCGATGCGGAGTCACCTAGTGCAG	32400 fluorescence intensity (a.u.)
CCCGTGCATGCTTGTGGAAGTCCCATTTCTCTCGCGACAACGGAGTCACCTAGTGCAG	12800 fluorescence intensity (a.u.)
GGCGGAGGGAGGGAGGGGAAGTCGGTGGTGAGGTGGCGTGCGGAGTCACCTAGTGCAG	12900 fluorescence intensity (a.u.)
TGATTTTTCGACAAATGTTTGACCTTTCGTCTTATTTAAACGGAGTCACCTAGTGCAG	8830 fluorescence intensity (a.u.)
TTCTGGATTGTTCGGCACCCTCGCTAATCCCTAAAGTTATCGGAGTCACCTAGTGCAG	10500 fluorescence intensity (a.u.)
AATGCCTGTTTTTGTACCTTTGGTAATATCGTCCAAATTTCGGAGTCACCTAGTGCAG	9150 fluorescence intensity (a.u.)
TTCCTTTCAAAGTCCAGTTTGTGTCCTTTCAATCGACCCTCGGAGTCACCTAGTGCAG	8740 fluorescence intensity (a.u.)
AATTATTTCACCTGTACCGTACTTACTTTCGGCCATTATTCGGAGTCACCTAGTGCAG	9340 fluorescence intensity (a.u.)
CAAAAACGACCATCTTATCCACCATAGCTATCGCTTCATGCGGAGTCACCTAGTGCAG	8300 fluorescence intensity (a.u.)
ACATCTCACATCTCGCACTCGCATCGCAGCTCCCAACTCCCGGAGTCACCTAGTGCAG	8680 fluorescence intensity (a.u.)
TTGCTCTGTTTTTCTATGTTGTCGTATTTTCGTCAGATACCGGAGTCACCTAGTGCAG	8240 fluorescence intensity (a.u.)
AAAAACTCTTTTCGATATACGGTCAAGCATCTGATATGACCGGAGTCACCTAGTGCAG	8230 fluorescence intensity (a.u.)
CACAAGCAAAATTATTTTCTTTTCTTTTTTGCAGTCAAATCGGAGTCACCTAGTGCAG	8060 fluorescence intensity (a.u.)
TTCGTGCCTTTTGTTTGATAATTTCTTCATGCTATCTTTTCGGAGTCACCTAGTGCAG	12800 fluorescence intensity (a.u.)
ATTTGTAGTTCCTCGGTTTGGTTTGATTTGGTGAGGCGGGCGGAGTCACCTAGTGCAG	8320 fluorescence intensity (a.u.)
TGCCAACGGCGCCACGCCACCAACCTCCGATCGATCGATCCGGAGTCACCTAGTGCAG	8370 fluorescence intensity (a.u.)
CCCGATTTATGCCGGCCCAGGGTGGGAGGGGCAAAGAATGCGGAGTCACCTAGTGCAG	8540 fluorescence intensity (a.u.)
ACCTGCCGTTATCCCACAACCCACCACTCCACCAGCTTTCCGGAGTCACCTAGTGCAG	8740 fluorescence intensity (a.u.)
GTCATGTCTACGTGTCGCGCTCCAGTTCGCCGCCCACCACCGGAGTCACCTAGTGCAG	9060 fluorescence intensity (a.u.)
CTGCCCTACGCCTAAACGATCCTCTTTCTGGGACAAACTCCGGAGTCACCTAGTGCAG	8950 fluorescence intensity (a.u.)
GATTTATATATAATCAGGACACCTTCTCTTCTCTTCTCTCCGGAGTCACCTAGTGCAG	8230 fluorescence intensity (a.u.)
GGGAGAGAGAGTACGGGACGGGAGGGGAGAGGGGAAAACGCGGAGTCACCTAGTGCAG	8920 fluorescence intensity (a.u.)
CCAGTGAGACAAGTACCTGCATTCCTCTGCGCTTTTCTTTCGGAGTCACCTAGTGCAG	11700 fluorescence intensity (a.u.)
GGAGGGGTATTTTGGTCATTAGTCTAGAAACTTCCTTTTCCGGAGTCACCTAGTGCAG	11700 fluorescence intensity (a.u.)
ACAACCATCGTTGATTTTATTTCTTTGTCATTTTCTCATTCGGAGTCACCTAGTGCAG	9840 fluorescence intensity (a.u.)
